{
  "source": "patent EP0107208A1",
  "about": "“1,1,2-Triphenyl-but-1-ene derivatives, process for their preparation and their use as medicines” (Klinge Pharma GmbH, priority 1982, dated 1984)",
  "biological_target": "T1, Estradiolrezeptor (Oryctolagus cuniculus, UniProt G1SML6)",
  "T1 construct": "Das Uteruscytosol von weiblichen, präpubertären, weißen 2 kg schweren Kaninchen (Neuseeländer); from tissue; host or cells: uterus cytosol of female prepubertal New Zealand white rabbits",
  "T1 sequence (G1SML6 1-598)": "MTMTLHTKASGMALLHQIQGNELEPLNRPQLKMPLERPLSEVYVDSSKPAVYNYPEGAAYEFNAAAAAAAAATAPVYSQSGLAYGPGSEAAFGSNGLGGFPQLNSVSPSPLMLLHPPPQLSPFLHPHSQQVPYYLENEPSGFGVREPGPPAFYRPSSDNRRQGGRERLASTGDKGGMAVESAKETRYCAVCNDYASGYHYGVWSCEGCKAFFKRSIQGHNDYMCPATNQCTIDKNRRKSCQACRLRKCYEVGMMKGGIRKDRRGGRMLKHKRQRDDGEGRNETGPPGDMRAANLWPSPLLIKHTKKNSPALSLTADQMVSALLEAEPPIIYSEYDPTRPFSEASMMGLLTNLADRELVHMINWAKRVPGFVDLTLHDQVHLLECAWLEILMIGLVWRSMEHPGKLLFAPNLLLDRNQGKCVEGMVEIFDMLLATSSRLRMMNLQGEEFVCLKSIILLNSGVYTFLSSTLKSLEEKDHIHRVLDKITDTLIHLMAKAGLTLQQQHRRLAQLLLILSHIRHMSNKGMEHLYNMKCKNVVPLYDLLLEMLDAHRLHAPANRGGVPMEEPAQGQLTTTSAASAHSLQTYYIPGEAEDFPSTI",
  "assay": "Binding affinity to the estradiol receptor: displacement of [3H]-estradiol in rabbit uterus cytosol",
  "parameters": "species or system Kaninchen (Neuseeländer)",
  "from_the_text": "Die Messung der Eindungsaffinität zum Estradiolrezeptor erfolgte nach der Eethode von N. Devleeschouwer, G. Leclercq, A. Danguy und J. C. Heuson LEurop. J. Cancer, 14 ,721 - 723 (197o)].\nTestsubstanz verschiedener Konzentration inkubiert.Die Bindungsaffinität zum Estradiolrezeptor wird ausgedrückt durch die aen. […] Testsubstanz, welche eine 5C-prcz.",
  "data": [
    {"smiles": "CC/C(=C(\\c1ccccc1)c1ccc(OCCN(C)C)cc1)c1ccccc1", "note": "[Tamoxifen, (Z)-1-[4'-(2-Dimetrylaminoethcxy)phenyl]-1,2-diphenyl-but-1-en, reference compound]", "values": [
      {"measurement": "IC50", "value": 250, "unit": "nM"}
    ]}
  ]
}
